Experimental data from PubChem BioAssay AID1347075 (National Center for Advancing Translational Sciences (NCATS), 2019).
The campaign covered roughly 400,000 compounds. About 5,500 (1.4%) were called active. This list was built around the results that the source calls inconclusive (neither active nor inactive); the mix of calls is not that of the screen. Calls follow the shape of the dose curve; as a rule, active = well fitted cell-killing curve with a large enough effect; inconclusive = small, poorly fitted or top-dose-only effect, or effect the other way; inactive = flat fitted curve, though single readings scatter. Potencies beside an inconclusive call are fits to weak or partial responses and may not hold up.

Assay: qHTS assay for MDR1-selective chemotherapeutics: Primary screen using the parental adenocarcinoma cell KB-3-1; also: nearly all actives have a fitted effect of over 60% in size
Settings: KB-3-1 viability, CellTiter-Glo ATP luminescence, 72 h; series mostly up to 46.1 µM
Method in brief: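 Here the drug-naive KB-3-1 line serves as comparator for MDR sub-line selectivity; cells received compound titrations, 72 h at 37 °C, then CellTiter-Glo readout.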
Potency is read from the fitted curve at half-maximal effect.

| SMILES | Potency |
| --- | --- |
| O=C(N/N=C/c1cccc(C(F)(F)F)c1)C1CCN(c2ncc(C(F)(F)F)cc2Cl)CC1 | inconclusive: 1.03 µM [cytotoxic, full curve] |
| C[C@@H]1CN([C@H](C)CO)C(=O)c2cc(NC(=O)Nc3ccc(C(F)(F)F)cc3)ccc2O[C@H]1CN(C)C(=O)Nc1ccc(F)cc1 | inconclusive: 29.1 µM [cytotoxic, single point] |
| S=c1[nH]cnc2scc(-c3ccccc3)c12 | inactive |
| Cc1ccc(S(=O)(=O)N2CCCN(C(=O)CNC(=O)c3cccc(C)c3)CC2)cc1 | inactive |
| Cc1ccc(CN2CCC(c3cc(-c4ccc(Cl)cc4)n[nH]3)CC2)cc1 | inconclusive: 18.4 µM [cytotoxic, single point] |
| COc1ccc2cc(-c3csc(-c4cccnc4)n3)ccc2c1 | inactive |
| Cc1ccc(-n2c(C)cc(C(=O)CN3CCOCC3)c2C)cc1C | inactive |
| CCCc1nc(SCC(=O)Nc2cc(C)on2)c2ccccc2n1 | inconclusive: 29.1 µM [cytotoxic, single point] |
| COc1ccc(-c2nn(C)c(=O)c3ccccc23)cc1NC(=O)COc1ccc(C)cc1 | inconclusive: 32.6 µM [cytotoxic, single point] |
| C=CCN=C1CCCc2c1[nH]c1ccc(C)cc21 | active: 6.51 µM |
| COc1ccccc1N1CCN(C(=O)c2ccccc2SCC(=O)N2CCCC2)CC1 | inconclusive: 7.31 µM [cytotoxic, partial curve, poor fit] |
| CC(C)CN(C(=O)COC(=O)Cc1ccc(Cl)cc1)c1c(N)n(Cc2ccccc2)c(=O)[nH]c1=O | inactive |
| O=C1CC(c2ccc(F)cc2)c2cc3c(cc2N1)CCC3 (centres undefined) | inconclusive: 23.1 µM [cytotoxic, single point] |
| Cc1noc(C)c1NC(=O)N(C)C[C@H]1Oc2ccc(NS(=O)(=O)c3c(C)noc3C)cc2C(=O)N([C@H](C)CO)C[C@@H]1C | inconclusive: 5.8 µM [rising, partial curve] |
| O=C(NCc1cccs1)c1nc2c(nnn2Cc2ccccc2Cl)c(=O)[nH]1 | active: 5.8 µM |
| Cc1ccc(S(=O)(=O)SCCCSS(=O)(=O)c2ccc(C)cc2)cc1 | inactive |
| CCCCCCCN1CCC(=O)N([C@H](CO)Cc2ccccc2)CC1 | inconclusive: 18.4 µM [cytotoxic, single point] |
| Cc1c(/C=N\NC(=O)c2csc3ccccc23)cnn1C | inconclusive: 8.2 µM [cytotoxic, partial curve, poor fit] |
| O=C(CN1CCN(CC(=O)Nc2ccccc2Cl)CC1)Nc1ccc2c(c1)OCCO2 | inconclusive: 5.8 µM [cytotoxic, partial curve] |

Shown field by field: 2 of the compounds above.
Cc1c(/C=N\NC(=O)c2csc3ccccc23)cnn1C
  Potency: inconclusive: 8.2 µM [cytotoxic, partial curve, poor fit]
O=C(CN1CCN(CC(=O)Nc2ccccc2Cl)CC1)Nc1ccc2c(c1)OCCO2
  Potency: inconclusive: 5.8 µM [cytotoxic, partial curve]
